Here are results for four substances from patent publication EP1591450A1 (YAMANOUCHI PHARMACEUTICAL CO. LTD., priority 2003, dated 2004).

The nature of the data set: general procedure: Fmoc solid-phase peptide synthesis; Fmoc-Gly-Wang Resin; HBTU/DIEA. The following applies: whole synthesis, RP-HPLC peak area ratio.
Consider “9-fluorenylmethylcarbonyl (Fmoc)-glycyl-prolyl-leucyl-glycyl-isoloucyl-alanyl-glycyl-glutamyl-glycine (Gly-Pro-Leu-Gly-Be-Ala-Gly-Gln-Gly) (Fmoc-GPLGIAGQG)”, for which the “final HPLC purity” value is listed as 98.7%. As to “9-fluorenylmethylcarbonyl (Fmoc)-glycyl-prolyl-glutamyl-glycyl-isoleucyl-tryptophanyl-glycyl-glutamyl-glycine (Gly-Pro-Gln-Gly-Ile-Trp-Gly-Gln-Gly) (Fmoc-GPQGIWGQG)”, the “final HPLC purity” value was found to be 98.4%. Take “9-fluorenylmethylcarbonyl (Fmoc)-glycyl-hydroxyprolyl-alanyl-seryl-cyclohexylglycyl-glutamyl-seryl-isoleucyl-glycine (Gly-Hyp-Ala-Ser-Chg-Gln-Ser-Leu-Gly) (Fmoc-GHypASChgQSLG)”: the “final HPLC purity” value turned out to be 100%. On to “9-fluorenylmethyloxycarbonyl (Fmoc)-glycyl-prolyl-glutamyl-glycyl-isoleucyl-alanyl-glycyl-tryptophanyl-glycine (Gly-Pro-Gln-Gly-Ile-Ma-Gly-Trp-Gly) (Fmoc-GPQGIAGWG)”, for which the “final HPLC purity” value was determined as 99.5%.
